Assay results as given in publication PMC7671996.
No constants are given. Whether binding was seen depends on the method and setting. In cells and extracts the contact can be indirect. Some entries that bind do so weakly or less than the wild type. For some assays here: Tags and fused reporters may be left off the sequences shown.

Protein sequences, listed by entry. Tags and fused reporters are not part of them. Lines headed by an entry give the natural chain unless they say otherwise; changes in a name come on top. Residues count along the entry.
UniProt Q16531: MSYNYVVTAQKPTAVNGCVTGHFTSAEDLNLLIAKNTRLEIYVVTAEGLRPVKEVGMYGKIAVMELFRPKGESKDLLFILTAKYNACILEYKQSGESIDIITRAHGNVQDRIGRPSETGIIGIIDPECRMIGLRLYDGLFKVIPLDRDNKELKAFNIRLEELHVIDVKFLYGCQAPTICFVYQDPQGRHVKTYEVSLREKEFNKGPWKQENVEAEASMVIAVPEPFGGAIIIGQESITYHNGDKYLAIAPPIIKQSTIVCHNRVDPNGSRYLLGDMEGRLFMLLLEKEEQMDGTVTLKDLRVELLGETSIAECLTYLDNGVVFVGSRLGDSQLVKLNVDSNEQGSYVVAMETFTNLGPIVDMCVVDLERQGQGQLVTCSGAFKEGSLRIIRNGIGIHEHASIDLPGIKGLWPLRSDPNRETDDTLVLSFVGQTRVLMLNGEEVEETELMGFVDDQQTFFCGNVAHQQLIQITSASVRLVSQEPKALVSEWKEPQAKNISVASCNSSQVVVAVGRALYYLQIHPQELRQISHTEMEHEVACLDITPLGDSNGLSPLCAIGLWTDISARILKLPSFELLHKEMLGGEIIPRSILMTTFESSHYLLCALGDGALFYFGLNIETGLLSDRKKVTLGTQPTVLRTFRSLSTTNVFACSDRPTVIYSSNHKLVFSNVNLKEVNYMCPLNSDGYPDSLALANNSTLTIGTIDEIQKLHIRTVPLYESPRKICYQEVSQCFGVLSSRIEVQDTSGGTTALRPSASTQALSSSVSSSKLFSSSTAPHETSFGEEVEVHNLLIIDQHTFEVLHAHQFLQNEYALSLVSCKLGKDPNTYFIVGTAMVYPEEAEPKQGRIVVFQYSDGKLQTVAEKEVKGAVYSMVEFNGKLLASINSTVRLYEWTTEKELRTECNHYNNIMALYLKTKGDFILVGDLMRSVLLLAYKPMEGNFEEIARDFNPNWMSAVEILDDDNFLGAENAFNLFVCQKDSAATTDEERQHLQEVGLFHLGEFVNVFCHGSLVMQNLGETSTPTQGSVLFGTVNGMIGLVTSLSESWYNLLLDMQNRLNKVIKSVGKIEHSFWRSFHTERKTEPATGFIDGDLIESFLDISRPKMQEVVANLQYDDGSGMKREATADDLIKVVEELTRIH
UniProt Q96SW2: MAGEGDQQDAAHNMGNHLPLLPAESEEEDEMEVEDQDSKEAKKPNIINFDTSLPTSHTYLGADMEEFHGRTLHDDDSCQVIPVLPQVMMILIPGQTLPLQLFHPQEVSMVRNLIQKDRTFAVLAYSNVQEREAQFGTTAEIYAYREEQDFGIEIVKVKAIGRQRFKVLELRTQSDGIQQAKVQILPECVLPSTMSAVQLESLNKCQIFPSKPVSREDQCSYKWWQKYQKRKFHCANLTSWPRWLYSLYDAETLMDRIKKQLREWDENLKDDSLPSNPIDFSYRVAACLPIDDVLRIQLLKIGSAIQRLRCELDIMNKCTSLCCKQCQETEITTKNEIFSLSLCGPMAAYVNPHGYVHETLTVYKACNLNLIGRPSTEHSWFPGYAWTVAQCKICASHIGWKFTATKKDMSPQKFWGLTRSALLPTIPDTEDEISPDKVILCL
CRBN truncated mutant (81-317, Lon N-terminal): residues 81-317 of Q96SW2
UniProt Q13619: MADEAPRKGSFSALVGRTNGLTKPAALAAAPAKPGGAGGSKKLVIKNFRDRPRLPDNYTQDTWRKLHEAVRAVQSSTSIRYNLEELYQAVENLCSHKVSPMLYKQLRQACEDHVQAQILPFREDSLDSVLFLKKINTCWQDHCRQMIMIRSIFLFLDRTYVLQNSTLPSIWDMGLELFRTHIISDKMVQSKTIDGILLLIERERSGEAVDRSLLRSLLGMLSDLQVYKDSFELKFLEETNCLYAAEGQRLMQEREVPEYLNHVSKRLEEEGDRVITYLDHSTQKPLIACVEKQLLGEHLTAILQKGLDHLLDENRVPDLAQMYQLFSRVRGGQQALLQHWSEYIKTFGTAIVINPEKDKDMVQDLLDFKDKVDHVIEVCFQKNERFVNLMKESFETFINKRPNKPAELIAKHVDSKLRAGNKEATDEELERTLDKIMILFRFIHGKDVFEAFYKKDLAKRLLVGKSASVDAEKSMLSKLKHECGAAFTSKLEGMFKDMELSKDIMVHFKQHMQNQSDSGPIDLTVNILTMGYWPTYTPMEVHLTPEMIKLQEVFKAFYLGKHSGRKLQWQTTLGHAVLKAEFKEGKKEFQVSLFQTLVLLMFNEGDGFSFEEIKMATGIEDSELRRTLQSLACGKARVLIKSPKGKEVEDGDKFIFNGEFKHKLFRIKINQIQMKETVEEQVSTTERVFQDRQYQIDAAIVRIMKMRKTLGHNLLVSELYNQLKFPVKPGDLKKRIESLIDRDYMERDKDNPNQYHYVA
UniProt P26367: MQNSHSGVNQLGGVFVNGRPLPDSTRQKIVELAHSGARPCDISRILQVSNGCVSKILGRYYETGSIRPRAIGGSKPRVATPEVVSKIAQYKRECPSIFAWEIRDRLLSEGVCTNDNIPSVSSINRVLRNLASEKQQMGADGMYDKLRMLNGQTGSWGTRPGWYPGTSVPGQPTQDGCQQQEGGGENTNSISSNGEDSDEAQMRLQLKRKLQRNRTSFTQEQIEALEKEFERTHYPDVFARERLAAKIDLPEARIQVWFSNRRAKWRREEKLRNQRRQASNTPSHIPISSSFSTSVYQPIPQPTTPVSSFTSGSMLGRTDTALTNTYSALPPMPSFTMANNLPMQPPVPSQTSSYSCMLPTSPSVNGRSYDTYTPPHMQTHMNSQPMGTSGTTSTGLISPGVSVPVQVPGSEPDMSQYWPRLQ

B1: EGF like domain multiple 6 (EGFL6), endogenous (protein, UniProt Q8IUX8 22-553)
chain: NAASARHHGLLASARQPGVCHYGTKLACCYGWRRNSKGVCEATCEPGCKFGECVGPNKCRCFPGYTGKTCSQDVNECGMKPRPCQHRCVNTHGSYKCFCLSGHMLMPDATCVNSRTCAMINCQYSCEDTEEGPQCLCPSSGLRLAPNGRDCLDIDECASGKVICPYNRRCVNTFGSYYCKCHIGFELQYISGRYDCIDINECTMDSHTCSHHANCFNTQGSFKCKCKQGYKGNGLRCSAIPENSVKEVLRAPGTIKDRIKKLLAHKNSMKKKAKIKNVTPEPTRTPTPKVNLQPFNYEEIVSRGGNSHGGKKGNEEKMKEGLEDEKREEKALKNDIEERSLRGDVFFPKVNEAGEFGLILVQRKALTSKLEHKDLNISVDCSFNHGICDWKQDREDDFDWNPADRDNAIGFYMAVPALAGHKKDIGRLKLLLPDLQPQSNFCLLFDYRLAGDKVGKLRVFVKNSNNALAWEKTTSEDEKWKTGKIQLYQGTDATKSIIFEAERGKGKTGEIAVDGVLLVSGLCPDSLLSVDD
B2: Flag-EGFL6 wild type (protein, UniProt Q8IUX8 22-553)
chain: NAASARHHGLLASARQPGVCHYGTKLACCYGWRRNSKGVCEATCEPGCKFGECVGPNKCRCFPGYTGKTCSQDVNECGMKPRPCQHRCVNTHGSYKCFCLSGHMLMPDATCVNSRTCAMINCQYSCEDTEEGPQCLCPSSGLRLAPNGRDCLDIDECASGKVICPYNRRCVNTFGSYYCKCHIGFELQYISGRYDCIDINECTMDSHTCSHHANCFNTQGSFKCKCKQGYKGNGLRCSAIPENSVKEVLRAPGTIKDRIKKLLAHKNSMKKKAKIKNVTPEPTRTPTPKVNLQPFNYEEIVSRGGNSHGGKKGNEEKMKEGLEDEKREEKALKNDIEERSLRGDVFFPKVNEAGEFGLILVQRKALTSKLEHKDLNISVDCSFNHGICDWKQDREDDFDWNPADRDNAIGFYMAVPALAGHKKDIGRLKLLLPDLQPQSNFCLLFDYRLAGDKVGKLRVFVKNSNNALAWEKTTSEDEKWKTGKIQLYQGTDATKSIIFEAERGKGKTGEIAVDGVLLVSGLCPDSLLSVDD
B3: EGFL6 truncated mutant (65-259) (domain or fragment, UniProt Q8IUX8 65-259)
chain: CEPGCKFGECVGPNKCRCFPGYTGKTCSQDVNECGMKPRPCQHRCVNTHGSYKCFCLSGHMLMPDATCVNSRTCAMINCQYSCEDTEEGPQCLCPSSGLRLAPNGRDCLDIDECASGKVICPYNRRCVNTFGSYYCKCHIGFELQYISGRYDCIDINECTMDSHTCSHHANCFNTQGSFKCKCKQGYKGNGLRCS

What was measured:
[1] = molecular target: DDB1 (human (endogenous in HEK293T)) (UniProt Q16531); experiment: co-IP; HEK293T cells; endogenous EGFL6 and CRBN-DDB1-Cullin 4A complex
[2] = molecular target: Cereblon (CRBN), endogenous (human (endogenous in HUVEC and HEK293T)) (UniProt Q96SW2); experiment: as above
[3] = molecular target: Cullin 4A (human (endogenous in HEK293T)) (UniProt Q13619); experiment: as above
[4] = molecular target: Paired box 6 (PAX6), endogenous (human (endogenous in HUVEC)) (UniProt P26367); experiment: co-IP; reciprocal co-IP of endogenous proteins from HUVEC lysate with anti-EGFL6 and anti-PAX6 antibody; IgG as control
[5] = molecular target: Cereblon (CRBN), endogenous (human (endogenous in HUVEC and HEK293T)) (UniProt Q96SW2); experiment: co-IP; HUVEC treated with 50 μM thalidomide or not; co-IP of EGFL6 and CRBN
Myc-CRBN wild type = Myc-CRBN wild type (UniProt Q96SW2); experiment: co-IP; HEK293T cells co-transfected with EGFL6 WT or truncated mutants and Myc-CRBN WT, or CRBN WT or truncated mutants and Flag-EGFL6 WT; reciprocal co-IP; control vector
[6] = molecular target: CRBN truncated mutant (81-317, Lon N-terminal) (UniProt Q96SW2); experiment: as above

Binder | binding [1] | binding [2] | binding [3] | binding [4] | binding [5] | binding (Myc-CRBN wild type) | binding [6]
B1 | binds | binds | binds | binds | binds | – | –
B2 | – | – | – | – | – | binds | binds
B3 | – | – | – | – | – | binds | –
